The text below walks through data of patent US20210378591A1, “PROCESS FOR VISUAL DETERMINATION OF TISSUE BIOLOGY” (UNIVERSITY COLLEGE DUBLIN, NATIONAL UNIVERSITY OF IRELAND, …, priority 2018, published 2021).

The data set in a line: Dynamic visual analysis (DVA) of ICG NIR fluorescence intensity, rectal lesion versus healthy background tissue. The note with it: over 25-30 minutes.

On to `CC1(C)C(/C=C/C=C/C=C/C=C2\N(CCCCS(=O)(=O)O)c3ccc4ccccc4c3C2(C)C)=[N+](CCCCS(=O)(=O)[O-])c2ccc3ccccc3c21` [ICG, indocyanine green], for which the “logarithmic trend lines of intensity trace, lesion versus background tissue” value runs as follows: (benign lesions, washout period) “convergent over time”; (cancerous tissue) “divergent”.
